Measurements published in paper PMC12548414.
Out of some 1,600 compounds screened, about 20 (1%) showed an effect of 50% or more. Some of the results follow.

What follows are compounds tested on T1, E. coli pLC1021 (luc-trpAt trans-translation reporter). Conditions: reporter signal, KKL-35 = 100%; rise means trans-translation inhibition; 2 h, 20 µM.
T1 construct: pLC1021 luc-trpAt reporter strain
Parameters: species or system Escherichia coli pLC1021; luc-trpAt non-stop luciferase reporter; luminescence rises when trans-translation is inhibited; normalized to KKL-35 and DMSO
Outline: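 Luminescence (560 nm, 10 min after Bright-Glo) reports luciferase that escapes trans-translation tagging, measured after 2 h room-temperature treatment with 20 µM compound. Each plate was scaled between DMSO (negative) and 20 µM KKL-35 (positive) controls. Compounds scoring one standard deviation above the median counted as positive; at least two biological repeats.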

Row | Compound | % activation
1 | Cc1ccc(Nc2c(-c3ccccn3)nc3cccc(C)n23)cc1 [KKL-1136] | 0%
2 | Cc1cccc(-n2cc(CN(C)Cc3cccnc3)c(-c3cccc(F)c3)n2)c1 [KKL-0648] | 12%
3 | CCOC(=O)C1CCN(C2=NC(=O)/C(=C\c3ccc(Cl)cc3Cl)S2)CC1 [KKL-0394] | 0%
4 | N#C/C(=C/c1cn(-c2ccccc2)nc1-c1cccc(OCc2ccc(F)cc2)c1)C(=O)NCCCn1ccnc1 [KKL-0888] | 0%
5 | Cc1ccc(-c2csc(NC(=O)CSc3nc4ccccc4c(=O)n3CCCN(C)C)n2)cc1 [KKL-0801] | 0%
6 | COc1ccc(Nc2nc(-c3ccccn3)cs2)c(OC)c1 [KKL-0921] | 0%
7 | Cc1ccc(-c2nnc3sc(CCc4ccccc4)nn23)cc1 [KKL-1048] | 0%
8 | c1ccc(CCNc2cc(-c3ccccc3)nc3nncn23)cc1 [KKL-1689] | 2%
9 | CC(=O)Oc1cccc2ccc(/C=C/c3cccs3)nc12 [KKL-1297] | 33%
10 | C=CCN(CC=C)C(=S)NC(=O)c1ccc(F)cc1 [KKL-0580] | 20%
11 | Nc1ccc(S(=O)(=O)Nc2ccnn2-c2ccccc2)cc1 [KKL-1876] | 2%
12 | Cc1ccc(OC(=O)c2ccccc2Cl)cc1C [KKL-0329] | 0%
13 | N#Cc1cc(Oc2ccc(OCc3ccccc3)cc2)c([N+](=O)[O-])cc1C#N [KKL-0738] | 5%
14 | COC(=O)COc1ccc(NC(=O)c2ccc(-c3ccccc3)cc2)cc1 [KKL-1562] | 4%
15 | Cc1ccc(NC(=O)CN2CCC(c3nc4cc(Cl)ccc4[nH]3)CC2)cc1 [KKL-1247] | 0%
16 | CC1CCCC(NCC(O)COC(c2ccc(F)cc2)c2ccc(F)cc2)C1C (centres unmarked) [KKL-0822] | 0%
17 | CCCCCCCn1c(NC(=O)CC)nc2ccccc21 [KKL-0373] | 27%
18 | Cc1cccc(C(=O)Nc2ccc(C(=O)/C=C/c3cccnc3)cc2)c1 [KKL-1084] | 5%
19 | CC(C)(C)c1ccc(C(=O)NC(=S)NCc2ccco2)cc1 [KKL-0564] | 0%
20 | CC(C)(C)c1ccc(C(=O)CC(=O)c2cc(Cl)ccc2O)cc1 [KKL-1081] | 3%
21 | COc1ccc(O)c(CN2CCCC(N3CCN(c4cccc(C(F)(F)F)c4)CC3)C2)c1 (centres unmarked) [KKL-0660] | 1%
22 | Cc1ccc(CSCC(=O)Nc2ccc(Cl)c(Cl)c2)cc1 [KKL-1340] | 0%

Row | Compound | % activation
23 | C[C@@H](NCCc1nc(-c2cn(C)c3ccccc23)no1)C1CCCCC1 [KKL-1716] | 3%
24 | COc1cc(/C=C/c2ccc3c([N+](=O)[O-])cccc3n2)ccc1OCC(=O)O [KKL-0939] | 0%
25 | CN(C)c1ccc(Nc2nc(-c3ccccn3)cs2)cc1 [KKL-0770] | 0%
26 | Cc1ccc2oc(C(=O)N3CCN(Cc4ccccc4F)C[C@@H]3C(C)C)cc(=O)c2c1 [KKL-1268] | 0%
27 | NC(=O)c1ccc(CN(C2CC2)S(=O)(=O)c2ccccc2F)cc1 [KKL-1719] | 0%
28 | COc1cccc(OC)c1-c1cnnc(NCc2cccc(SC)c2)n1 [KKL-0627] | 1%
29 | OC(COCCC12CC3CC(CC(C3)C1)C2)CN1CCc2ccccc2C1 (centres unmarked) [KKL-0790] | 0%
30 | O=C(Oc1cccc2cccnc12)c1ccccc1F [KKL-0435] | 0%
31 | CCOc1ccc(NC(=O)CSc2nc3ccc([N+](=O)[O-])cc3s2)cc1 [KKL-1417] | 0%
32 | CCc1c(C)sc2ncn(C3CCN(C(=O)c4nccc5ccccc45)CC3)c(=O)c12 [KKL-0513] | 3%
33 | Clc1ccc(Nc2nc(-c3ccccn3)cs2)nc1 [KKL-1793] | 0%
34 | CC(C)(C)c1cc(Cl)c(O)c(NC(=S)NC(=O)c2cccnc2)c1 [KKL-1270] | 0%
35 | CC(=O)c1ccc(NCCC(=O)c2ccco2)cc1 [KKL-1470] | 4%
36 | CNc1nc(SCC(=O)N(C)Cc2ccc(Cl)s2)nc2ccccc12 [KKL-1768] | 0%
37 | Cc1ccc(OCC(O)CN2CCN(CC(O)COc3ccc(C)cc3C)CC2)c(C)c1 (centres unmarked) [KKL-1486] | 2%
38 | Cc1sc2nc(-c3ccccn3)nc(O)c2c1-c1ccccc1 [KKL-0802] | 26%
39 | Cc1ccc(-n2cc(CNC(C)c3csc(C)n3)c(-c3cccc(C)c3)n2)cc1 (centres unmarked) [KKL-0500] | 0%
40 | CCN1CCN(c2cc3c(cc2F)c(=O)c(C(=O)O)cn3C2CC2)CC1 [KKL-0903] | 6%
41 | O=C(CCl)N(c1ccccc1)c1c[nH]c2ccccc12 [KKL-0995] | 0%
42 | Cn1nc([N+](=O)[O-])nc1Sc1nnc(-c2cccnc2)o1 [KKL-1345] | 0%
43 | COC(=O)CSc1nc2c(c(-c3ccco3)c1C#N)CCCC2 [KKL-0885] | 8%
44 | O=C1N(c2ccc3c(c2)OCCO3)C(c2ccccc2)C1(F)F (centres unmarked) [KKL-0848] | 0%

Row | Compound | % activation
45 | O=C(CCSc1ccc(Cl)cc1)Nc1nc(-c2ccccn2)cs1 [KKL-1742] | 10%
46 | O=C(COc1ccc2c(-c3ccccc3)cc(=O)oc2c1)OC1CCCCC1 [KKL-0860] | 0%
47 | Cc1cccc(OCc2nnc(SCC(=O)OC3CCCCC3)o2)c1 [KKL-1659] | 0%
48 | Cn1c(NC(=O)c2ccccc2)nc2ccccc21 [KKL-1377] | 0%
49 | Cc1ccc2nc(C)c(-c3ccn(Cc4ccccc4)n3)n2c1 [KKL-1873] | 3%
50 | N#Cc1nc(-c2ccccc2F)oc1NCCc1ccccc1 [KKL-1796] | 0%
51 | Cc1ccc(C2CC(C(F)(F)F)n3nc(C(=O)NCc4ccco4)cc3N2)cc1 (centres unmarked) [KKL-1125] | 0%
52 | Cc1ccc(SCCNC(=O)c2c(-c3ccccc3)noc2C)cc1 [KKL-1806] | 1%
53 | O=C(NCc1ccco1)N1CCN(Cc2ccc(Cl)s2)CC1 [KKL-1727] | 3%
54 | Cc1cc(OC(=O)C2CC2)c2c3c(c(=O)oc2c1)CCCC3 [KKL-0717] | 10%
55 | CCC1c2ccc(C)n2CCN1Cc1cnn(Cc2ccccc2)c1C (centres unmarked) [KKL-0515] | 0%
56 | Cc1cccc(OCCCCc2c(C)n[nH]c2C)c1C [KKL-1099] | 1%
57 | N#Cc1cc2c(ccc3ccccc32)oc1=O [KKL-1386] | 0%
58 | Cc1cc(NC(=O)CSc2nnnn2-c2ccccc2C)no1 [KKL-0567] | 0%
59 | Cc1ccc(-n2cc(-c3ccccc3)c3c(NCc4cccnc4)ncnc32)cc1 [KKL-1567] | 0%
60 | CCCC(=O)N1CCN(c2ccc(NC(=O)c3ccc([N+](=O)[O-])o3)cc2Cl)CC1 [KKL-1635] | 0%
61 | COC(=O)COc1cccc(NC(=O)COc2ccccc2)c1 [KKL-0968] | 0%
62 | CCOc1ccccc1C1c2[nH]c3ccccc3c2CCN1Cc1cc2ccccc2nc1O (centres unmarked) [KKL-0655] | 9%
63 | COc1cccc(NC(=O)CSc2nnc(-c3ccc(Br)cc3)o2)c1 [KKL-1288] | 6%
64 | Cc1c(-c2ccccc2)n[nH]c1C(=O)NCCCc1ccc(F)cc1 [KKL-0685] | 0%
65 | O=C(Oc1cccc2cccnc12)c1ccc(S(=O)(=O)N2CCCCC2)cc1 [KKL-0609] | 0%
66 | CCCC(NC(=O)c1cnc(SC)nc1)c1cccs1 (centres unmarked) [KKL-0695] | 2%

Entries 54 through 58, quoted:
Row | Compound | % activation
54 | Cc1cc(OC(=O)C2CC2)c2c3c(c(=O)oc2c1)CCCC3 [KKL-0717] | 10%
55 | CCC1c2ccc(C)n2CCN1Cc1cnn(Cc2ccccc2)c1C (centres unmarked) [KKL-0515] | 0%
56 | Cc1cccc(OCCCCc2c(C)n[nH]c2C)c1C [KKL-1099] | 1%
57 | N#Cc1cc2c(ccc3ccccc32)oc1=O [KKL-1386] | 0%
58 | Cc1cc(NC(=O)CSc2nnnn2-c2ccccc2C)no1 [KKL-0567] | 0%

Following part

Row | Compound | % activation
67 | COc1cccc(/C=C2\Sc3ccc(C(=O)NCc4cccnc4)cc3N(C)C2=O)c1 [KKL-1127] | 0%
68 | COc1cccc(OC)c1C(=O)Nc1ccc(Cl)c(-c2nc3ccccc3s2)c1 [KKL-1559] | 0%
69 | Cc1c(CN2CCC(O)(c3ccc(F)cc3)CC2)[nH]c2ccc(F)cc12 [KKL-0937] | 0%
70 | O=C(Nc1nc(-c2ccccn2)cs1)c1cc(Cl)ccc1[N+](=O)[O-] [KKL-0799] | 16%
71 | Cc1nc(N2CCN(Cc3ccc4c(c3)OCO4)CC2)c2cc(-c3ccccc3)sc2n1 [KKL-1242] | 9%
72 | Cc1cccc(Nc2nnc(SCC(=O)Nc3cccnc3Cl)s2)c1 [KKL-0387] | 0%
73 | O=C(CC(O)(C(F)(F)F)C(F)(F)F)Nc1cccc(C(F)(F)F)c1 [KKL-0396] | 28%
74 | Cc1cc(C)nc(/N=C(\N)Nc2cc(Cl)ccc2Oc2ccccc2)n1 [KKL-0289] | 0%
75 | CSc1ncc(C(=O)NC(c2cccs2)C(C)C)cn1 (centres unmarked) [KKL-0686] | 0%
76 | CCOC(=O)COc1ccc2ccccc2c1/C=C/[N+](=O)[O-] [KKL-1518] | 0%
77 | COC(=O)[C@@H]1Cc2c([nH]c3ccccc23)[C@H]2C[C@@H](N3CC[C@@H](O)C3)C[C@@H](c3ccc(C(F)(F)F)cc3)N21 [KKL-0312] | 2%
78 | CCOC(=O)c1cnc(-n2nc(C)cc2C)nc1NC1CCCC1 [KKL-0899] | 4%
79 | CC12CC3CC(C)(C1)CC(CNCc1ccccc1O)(C3)C2 [KKL-1484] | 3%
80 | Cc1c(C(=O)Oc2cccc3cccnc23)oc2ccccc12 [KKL-1058] | 10%
81 | COc1ccccc1N1CCN(c2nc(C)nc3c2oc2ccccc23)CC1 [KKL-0900] | 4%
82 | CCOc1cc2c3c(c1)C1(C(=O)N3C(C)(C)C=C2C)C(C#N)=C(N)Oc2cc(O)ccc21 (centres unmarked) [KKL-1341] | 0%
83 | CC(=O)N1CC2(CCN(CC(=O)Nc3ccc(Cl)cc3)CC2)Nc2ccccc21 [KKL-1346] | 0%
84 | Cc1cc2c(cc1NCc1cc3c(C)nn(-c4ccccc4)c3nc1O)OCCO2 [KKL-0349] | 0%
85 | Cc1nc(-c2ccccc2Br)cc([C@H]2CN3CC[C@H]2C[C@@H]3CNC(=O)c2ccc(C(C)(C)C)cc2)n1 [KKL-1598] | 0%
86 | CCOC(=O)Cc1csc(NC(=O)c2c(O)c3ccccc3n(CCC(C)C)c2=O)n1 [KKL-1615] | 75%
